The values that follow come from publication PMC12513489.

Protein sequences, listed by entry. Tags and fused reporters are not part of them. Residues count along the entry.
UniProt P08113, residues 22-802: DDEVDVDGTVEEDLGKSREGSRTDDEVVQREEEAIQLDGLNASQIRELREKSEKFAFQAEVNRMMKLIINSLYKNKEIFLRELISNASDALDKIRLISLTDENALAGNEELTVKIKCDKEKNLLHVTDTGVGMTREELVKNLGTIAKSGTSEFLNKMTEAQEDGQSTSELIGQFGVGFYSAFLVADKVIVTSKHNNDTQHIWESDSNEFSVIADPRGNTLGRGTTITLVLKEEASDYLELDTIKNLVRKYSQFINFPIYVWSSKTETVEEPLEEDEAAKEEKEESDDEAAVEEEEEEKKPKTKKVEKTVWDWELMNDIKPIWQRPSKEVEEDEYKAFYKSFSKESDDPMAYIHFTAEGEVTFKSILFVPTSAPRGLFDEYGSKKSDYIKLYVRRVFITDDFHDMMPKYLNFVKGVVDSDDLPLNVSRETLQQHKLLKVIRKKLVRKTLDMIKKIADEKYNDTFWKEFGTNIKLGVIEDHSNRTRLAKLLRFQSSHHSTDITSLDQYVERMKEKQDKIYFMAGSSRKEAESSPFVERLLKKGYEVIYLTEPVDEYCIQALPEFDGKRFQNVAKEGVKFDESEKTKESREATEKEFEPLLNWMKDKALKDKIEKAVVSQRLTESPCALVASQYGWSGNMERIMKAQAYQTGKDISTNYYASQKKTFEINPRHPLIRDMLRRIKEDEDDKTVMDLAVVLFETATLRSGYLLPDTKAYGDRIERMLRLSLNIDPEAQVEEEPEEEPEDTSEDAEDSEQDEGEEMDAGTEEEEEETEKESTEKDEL
UniProt P07356: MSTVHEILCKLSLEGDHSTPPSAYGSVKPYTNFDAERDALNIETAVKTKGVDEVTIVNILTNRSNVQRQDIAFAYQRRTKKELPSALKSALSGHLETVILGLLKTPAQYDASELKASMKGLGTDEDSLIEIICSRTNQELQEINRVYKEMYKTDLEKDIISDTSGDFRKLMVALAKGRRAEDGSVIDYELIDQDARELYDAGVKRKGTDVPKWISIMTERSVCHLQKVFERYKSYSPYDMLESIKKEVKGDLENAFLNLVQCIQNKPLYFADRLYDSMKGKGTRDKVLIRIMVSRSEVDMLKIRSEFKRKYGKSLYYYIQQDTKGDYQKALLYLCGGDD
UniProt P46935: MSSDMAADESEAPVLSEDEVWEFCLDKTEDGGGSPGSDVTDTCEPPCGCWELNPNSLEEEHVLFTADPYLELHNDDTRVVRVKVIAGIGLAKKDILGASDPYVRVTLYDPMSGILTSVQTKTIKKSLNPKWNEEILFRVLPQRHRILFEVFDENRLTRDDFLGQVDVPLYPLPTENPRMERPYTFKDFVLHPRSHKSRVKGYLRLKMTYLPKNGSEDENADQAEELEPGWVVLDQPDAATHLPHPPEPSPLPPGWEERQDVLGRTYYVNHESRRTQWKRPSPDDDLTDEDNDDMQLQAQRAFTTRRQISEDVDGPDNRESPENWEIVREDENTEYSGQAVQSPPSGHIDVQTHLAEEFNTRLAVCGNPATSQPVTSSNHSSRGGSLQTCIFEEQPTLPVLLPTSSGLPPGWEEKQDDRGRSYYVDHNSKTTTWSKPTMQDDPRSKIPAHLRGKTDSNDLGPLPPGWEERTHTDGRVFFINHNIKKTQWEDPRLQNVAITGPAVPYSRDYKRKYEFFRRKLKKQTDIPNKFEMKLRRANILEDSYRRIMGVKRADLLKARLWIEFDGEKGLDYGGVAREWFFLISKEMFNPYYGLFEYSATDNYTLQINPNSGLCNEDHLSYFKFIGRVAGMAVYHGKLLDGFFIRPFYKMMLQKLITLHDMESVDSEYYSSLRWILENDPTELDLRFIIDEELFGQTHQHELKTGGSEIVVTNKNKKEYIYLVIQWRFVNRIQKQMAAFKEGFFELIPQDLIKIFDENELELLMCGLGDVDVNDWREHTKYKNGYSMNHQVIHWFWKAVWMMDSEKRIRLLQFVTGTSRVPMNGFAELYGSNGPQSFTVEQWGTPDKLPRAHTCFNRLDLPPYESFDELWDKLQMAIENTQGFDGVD

Results are given in words; binding and its absence hold for the method and conditions named. In cells and extracts the contact can be indirect. These calls come from enrichment with a bait or labelling near it, and not all partners need be listed.

The assay addresses glucose-regulated protein 94 (GRP94) (mouse (endogenous in cardiomyocytes)) (UniProt P08113). The experiment in a line: affinity purification with mass spectrometry; co-IP with anti-GRP94 antibody on Protein A/G magnetic beads from lysate of cardiomyocytes treated with hypoxia (12 hours) or tunicamycin (15 mg/L, 12 hours); SDS-PAGE, in-gel trypsin digestion, LC-MS/MS.

Consider Anxa2 (from UniProt P07356 1-339), for which the binding result is “binds”.

As to NEDD4 (from UniProt P46935 1-887), the binding entry is recorded as “binds”.
